The record followed here is patent US11099176B2 (Duke University, priority 2015, dated 2021).

This data set can be described thus: Lactate-mediated fluorescence emission response of fluorescent conjugates (cysteine and fluorophore scan). It counts as biochemical. As to conditions: dominant excited-state population in the absence of lactate. The source says:
Semi-synthetic FRSs can be engineered by site-specifically attaching thiol-reactive, environmentally sensitive fluorophores that respond to ligand-mediated conformational changes. Identification of FRS candidates that can be used for sensing applications comprises three steps: • 1. Cysteine scan. Mutant lactate-binding proteins containing single cysteines are constructed for site-specific attachment of thiol-reactive fluorophores. […] Candidate positions fall into three classes: endosteric, replacing a residue that contacts the ligand directly; peristeric, located at the rim of the binding site; allosteric (Marvin et al., 1997, Proc Natl Acad Sci USA, 94, 4366-71; Marvin, 1998, J Am Chem Soc, 120, 7-11), located outside the binding site at sites that undergo local structural changes in concert with the hinge-bending motion. • 2. Fluorophore screening. […] Responses to ligand binding in which there is both a change in fluorescence emission intensity and spectral shape are essential for chemometric applications, because such changes enable ratiometric measurements. […]
We constructed seventeen single cysteine mutants in msLacBP6, exploring one endosteric, fourteen peristeric, and two allosteric positions. Two dominant electronic transitions give rise to fluorescence emission in these fluorophores with maxima in the blue (<500 nm) and green (>500 nm) regions, respectively.

B1: Y187C (conjugate)
chain: MATTWKIQSVWDAGTVGYDLFKEWCDGMEEKTGGELKFTCFPAKAVAADNNGLFDAVRNGVLQGMNPFTLYWSGKIPASVFLSSYPAGPDQPHQWDTMFYSLGMLEKTREIYKKFGLFYVGPIQHDANIIHSKQPINSLDDLKGLKMRLPGGMVAEVFAKFGVAAVSLPGSDIFPALEKGTIDAADCVGPAVNWELGFSQVTKYILMGPPGIMSVYQPVDLMDLTVNLRAWNALDPKLQQIVEDEVRIYSQKHYLAIQKRNIEAMKKFEAAGTTVTRLSQEDLQEFRRAAIPIWYSWANKDEDAREIFDMQLEYMMNDTVGYITEDDIKGMN
modifications: conjugated fluorophore; msLacBP6 (with signal peptide replaced with M)
B1: the “Response Acrylodan Excited states” value (Acrylodan conjugate) is “b (b, blue (maxima < 500 nm))”. Under “Badan conjugate”, the “Response Badan Excited states” value is recorded as “g (g, green (maxima > 500 nm))”.
